# Measurements reported in the supplement of paper PMC12067093, “Discovery and optimisation of a covalent ligand for TRIM25 and its application to targeted protein ubiquitination” (Chemical Science, 2025).
# The other results are listed elsewhere or left out.
# Compound: Cc1cc(ccc1-c1ccccc1)C(=O)N1CCCN(CC1)C(=O)CCl [compound 10]
# Test: probe-labelled cysteine peptide fold change vs DMSO (competition) (log2 fold change); higher = less target engagement (more negative = stronger competition)
# Settings: 10 µM; THP-1; incubation time: 4 h
# 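Further: competitive profiling in live THP-1 cells: cysteine peptides tagged with an iodoacetamide desthiobiotin (IA-DTB) probe, intensity after compound treatment relative to DMSO-treated cells.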
row,Target,probe-labelled cysteine peptide fold change
1,DYNC1H1_Q14204_633_VQYPQSQACK (UniProt Q14204),-0.0525
2,DPM3_Q9P2X0_67_VATFHDCEDAAR (UniProt Q9P2X0),0.0699
3,DPF2_Q92785_276_KGPDGLALPNNYCDFCLGDSK (UniProt Q92785),0.0347
4,DOCK11_Q5JSL3_1906_RIPINCEQQINLKPIDVATDEIK (UniProt Q5JSL3),-0.105
5,DOK2_O60496_65_LSDCLR (UniProt O60496),-0.0637
6,DYNLT1_P63172_93_NGAGLHTASSCFWDSSTDGSCTVR (UniProt P63172),0.128
7,DYNC1H1_Q14204_4438_QDLADVVQVCEGK (UniProt Q14204),-0.0212
8,DUS3L_Q96G46_396_TVEVDFVDINVGCPIDLVYKK (UniProt Q96G46),-0.0199
9,DUT_P33316_166_TDIQIALPSGCYGR (UniProt P33316),0.11
10,DOK2_O60496_110_GDWVQAICLLAFPGQR (UniProt O60496),0.00867
11,DOCK6_Q96HP0_1619_HAELGNHAEAAQCMVHAAALVAEYLALLEDHR (UniProt Q96HP0),-0.0641
12,DOHH_Q9BU89_122_QYSSDPVIEVAETCQLAVR (UniProt Q9BU89),0.104
13,DUSP23_Q9BVJ7_53_GPPHSDSCPGLTLHR (UniProt Q9BVJ7),-0.132
14,DOCK8_Q8NF50_590_IQFMCGEDASNAMPVIFGK (UniProt Q8NF50),0.192
15,DYNC1H1_Q14204_3089_CVLNWFGDWSTEALYQVGK (UniProt Q14204),-0.146
16,DYNC1H1_Q14204_1977_MLSAVSQQVQCIQEALR (UniProt Q14204),0.116
17,DOK3_Q7L591_144_LADCVSVLPADGESCPR (UniProt Q7L591),0.15
18,DYNC1I2_Q13409_386_TPLSAAAHTHPVYCVNVVGTQNAHNLISISTDGK (UniProt Q13409),0.33
19,DNPH1_O43598_117_ILCLFRPQSGR (UniProt O43598),-0.207
20,DST_Q03001_5394_AAQLQEALLHCGR (UniProt Q03001),0.0694
21,DYNLL1_P63167_24_NADMSEEMQQDSVECATQALEK (UniProt P63167),-0.166
22,DUS3L_Q96G46_396_TVEVDFVDINVGCPIDLVYK (UniProt Q96G46),-0.0529
23,DOCK8_Q8NF50_685_LQTGSYCLPVALEK (UniProt Q8NF50),0.0571
24,DOCK10_Q96BY6_1103_FDFLQEVCQHEHFIPLCLPIR (UniProt Q96BY6),-0.0111

# Same assay, conditions: 50 µM; THP-1; incubation time: 4 h
row,Target,probe-labelled cysteine peptide fold change
1,ECH1_Q13011_159+171_CPKPVIAAVHGGCIGGGVDLVTACDIR (UniProt Q13011),-0.0937
2,E4F1_Q66K89_361_ALAPEPPVSQELPCSSEGSR (UniProt Q66K89),-0.073
3,DRAP1_Q14919_73_QCIELEQQFDFLK (UniProt Q14919),-0.0103
4,DUSP12_Q9UNI6_115_AVLVHCHAGVSR (UniProt Q9UNI6),-0.108
5,DOK1_Q99704_389_DAWWCQAR (UniProt Q99704),-0.519
6,DYNC1H1_Q14204_4121_LHSLQPHACFR (UniProt Q14204),-0.112
7,EARS2_Q5JPH6_386_LQVLVEEAFGCQLQNR (UniProt Q5JPH6),-0.126
8,DSTN_P60981_135_HECQANGPEDLNR (UniProt P60981),0.231
9,DSTN_P60981_12_ASGVQVADEVCR (UniProt P60981),0.212
10,DUSP23_Q9BVJ7_108_TGTMLACYLVK (UniProt Q9BVJ7),-0.205
11,DYNC1H1_Q14204_2466_CLGSLFSMLHQACR (UniProt Q14204),0.192
12,DYNC1H1_Q14204_1888_CYLTMTQALEAR (UniProt Q14204),-0.161
13,EAPP_Q56P03_259+262_AETDVEEIYHPVMCTECSTEVAVYDKDEVFHFFNVLASHS (UniProt Q56P03),-0.421
14,DOCK11_Q5JSL3_1074_FEFLQTICNHEHYIPLNLPMAFAK (UniProt Q5JSL3),0.303
15,DPP8_Q6V1X1_506_CPIKEEIAITSGEWEVLGR (UniProt Q6V1X1),-0.313
16,DUS1L_Q6P1R4_395_CDQCGNPK (UniProt Q6P1R4),-0.0653
17,DYNC1H1_Q14204_633_VQYPQSQACK (UniProt Q14204),-0.0257
18,DPM3_Q9P2X0_67_VATFHDCEDAAR (UniProt Q9P2X0),0.242
19,DPF2_Q92785_276_KGPDGLALPNNYCDFCLGDSK (UniProt Q92785),-0.195
20,DOCK11_Q5JSL3_1906_RIPINCEQQINLKPIDVATDEIK (UniProt Q5JSL3),-0.0468

row,Target,probe-labelled cysteine peptide fold change
1,DOK2_O60496_65_LSDCLR (UniProt O60496),-0.196
2,DYNLT1_P63172_93_NGAGLHTASSCFWDSSTDGSCTVR (UniProt P63172),0.408
3,DYNC1H1_Q14204_4438_QDLADVVQVCEGK (UniProt Q14204),0.124
4,DUS3L_Q96G46_396_TVEVDFVDINVGCPIDLVYKK (UniProt Q96G46),-0.405
5,DUT_P33316_166_TDIQIALPSGCYGR (UniProt P33316),-0.0875
6,DOK2_O60496_110_GDWVQAICLLAFPGQR (UniProt O60496),-0.172
7,DOCK6_Q96HP0_1619_HAELGNHAEAAQCMVHAAALVAEYLALLEDHR (UniProt Q96HP0),0.0257
8,DOHH_Q9BU89_122_QYSSDPVIEVAETCQLAVR (UniProt Q9BU89),-0.273
9,DUSP23_Q9BVJ7_53_GPPHSDSCPGLTLHR (UniProt Q9BVJ7),0.0175
10,DOCK8_Q8NF50_590_IQFMCGEDASNAMPVIFGK (UniProt Q8NF50),0.0438
11,DYNC1H1_Q14204_3089_CVLNWFGDWSTEALYQVGK (UniProt Q14204),-0.142
12,DYNC1H1_Q14204_1977_MLSAVSQQVQCIQEALR (UniProt Q14204),0.369
13,DOK3_Q7L591_144_LADCVSVLPADGESCPR (UniProt Q7L591),-0.157
14,DYNC1I2_Q13409_386_TPLSAAAHTHPVYCVNVVGTQNAHNLISISTDGK (UniProt Q13409),0.14
15,DNPH1_O43598_117_ILCLFRPQSGR (UniProt O43598),-0.0582
16,DST_Q03001_5394_AAQLQEALLHCGR (UniProt Q03001),0.239
17,DYNLL1_P63167_24_NADMSEEMQQDSVECATQALEK (UniProt P63167),0.0355
18,DUS3L_Q96G46_396_TVEVDFVDINVGCPIDLVYK (UniProt Q96G46),0.0764
19,DOCK8_Q8NF50_685_LQTGSYCLPVALEK (UniProt Q8NF50),0.0366
20,DOCK10_Q96BY6_1103_FDFLQEVCQHEHFIPLCLPIR (UniProt Q96BY6),0.0119
